Test results published in US10808128B2, “Compounds as fluorescent probes, synthesis and applications thereof” (priority 2018, dated 2020).

Columns and labels:
[1] = Effect of solvent viscosity on steady state fluorescence (water, glycerol, ethylene glycol-glycerol mixtures); type: physicochemical; conditions: log-log fit of fluorescence intensity versus viscosity, ~0.6 for a perfect rotor
[2] = HC-1 fluorescence in surfactant micelles (SDS, TritonX-100); CMC by sigmoidal fitting; type: physicochemical
Protocol: Initially 300 mM solution of sodium dodecyl sulfate (SDS) in milli-Q water was prepared. Then, solution of varied concentrations (1-300 mM) by serial dilution was prepared. All the prepared solutions were heated at 70° C. for about 15 minutes and stored at room temperature overnight. Similarly, a stock of 10 mM was prepared for TritonX-100 also. Then solution of different concentration (0.05-4 mM) was prepared by serial dilution.

CN(C)c1ccc(/C=C/C2=[N+](C)c3ccc4ccccc4c3C2(C)C)cc1.[I-] [HC-1, (E)-2-(4-(Dimethylamino)styryl)-1,1,3-trimethyl-1H-benzo[e]indol-3-ium iodide]
Förster-Hoffmann slope B value [1]: ~0.46
fluorescence enhancement of HC-1 associated with micelle formation ([2]; SDS micelles): ~3 fold
fluorescence enhancement of HC-1 associated with micelle formation ([2]; TritonX-100 micelles): ~7 fold
